Source: paper doi:10.1101/2025.09.05.674436 (bioRxiv, 2025)
Results are given in words; binding and its absence hold for the method and conditions named.

Biological target: full length ZNFX1 expressed in insect cells (ZNFX1FL) (human) (UniProt Q9P2E3)
Assay: SDS-PAGE of LDS-resistant high molecular weight species

binding: no binding (condition: without E2∼Ub)
B1: full length ZNFX1 expressed in insect cells (ZNFX1FL) (enzyme)
chain: MEERRPHLDARPRNSHTNHRGPVDGELPPRARNQANNPPANALRGGASHPGRHPRANNHPAAYWQREERFRAMGRNPHQGRRNQEGHASDEARDQRHDQENDTRWRNGNQDCRNRRPPWSNDNFQQWRTPHQKPTEQPQQAKKLGYKFLESLLQKDPSEVVITLATSLGLKELLSHSSMKSNFLELICQVLRKACSSKMDRQSVLHVLGILKNSKFLKVCLPAYVVGMITEPIPDIRNQYPEHISNIISLLQDLVSVFPASSVQETSMLVSLLPTSLNALRASGVDIEEETEKNLEKVQTIIEHLQEKRREGTLRVDTYTLVQPEAEDHVESYRTMPIYPTYNEVHLDERPFLRPNIISGKYDSTAIYLDTHFRLLREDFVRPLREGILELLQSFEDQGLRKRKFDDIRIYFDTRIITPMCSSSGIVYKVQFDTKPLKFVRWQNSKRLLYGSLVCMSKDNFETFLFATVSNREQEDLCRGIVQLCFNEQSQQLLAEVQPSDSFLMVETTAYFEAYRHVLEGLQEVQEEDVPFQRNIVECNSHVKEPRYLLMGGRYDFTPLIENPSATGEFLRNVEGLRHPRINVLDPGQWPSKEALKLDDSQMEALQFALTRELAIIQGPPGTGKTYVGLKIVQALLTNESVWQISLQKFPILVVCYTNHALDQFLEGIYNCQKTSIVRVGGRSNSEILKQFTLRELRNKREFRRNLPMHLRRAYMSIMTQMKESEQELHEGAKTLECTMRGVLREQYLQKYISPQHWESLMNGPVQDSEWICFQHWKHSMMLEWLGLGVGSFTQSVSPAGPENTAQAEGDEEEEGEEESSLIEIAEEADLIQADRVIEEEEVVRPQRRKKEESGADQELAKMLLAMRLDHCGTGTAAGQEQATGEWQTQRNQKKKMKKRVKDELRKLNTMTAAEANEIEDVWQLDLSSRWQLYRLWLQLYQADTRRKILSYERQYRTSAERMAELRLQEDLHILKDAQVVGMTTTGAAKYRQILQKVEPRIVIVEEAAEVLEAHTIATLSKACQHLILIGDHQQLRPSANVYDLAKNFNLEVSLFERLVKVNIPFVRLNYQHRMCPEIARLLTPHIYQDLENHPSVLKYEKIKGVSSNLFFVEHNFPEQEIQEGKSHQNQHEAHFVVELCKYFLCQEYLPSQITILTTYTGQLFCLRKLMPAKTFAGVRVHVVDKYQGEENDIILLSLVRSNQEGKVGFLQISNRICVALSRAKKGMYCIGNMQMLAKVPLWSKIIHTLRENNQIGPMLRLCCQNHPETHTLVSKASDFQKVPEGGCSLPCEFRLGCGHVCTRACHPYDSSHKEFQCMKPCQKVICQEGHRCPLVCFQECQPCQVKVPKTIPRCGHEQMVPCSVPESDFCCQEPCSKSLRCGHRCSHPCGEDCVQLCSEMVTIKLKCGHSQPVKCGHVEGLLYGGLLVKCTTKCGTILDCGHPCPGSCHSCFEGRFHERCQQPCKRLLICSHKCQEPCIGECPPCQRTCQNRCVHSQCKKKCGELCSPCVEPCVWRCQHYQCTKLCSEPCNRPPCYVPCTKLLVCGHPCIGLCGEPCPKKCRICHMDEVTQIFFGFEDEPDARFVQLEDCSHIFEVQALDRYMNEQKDDEVAIRLKVCPICQVPIRKNLRYGTSIKQRLEEIEIIKEKIQGSAGEIATSQERLKALLERKSLLHQLLPEDFLMLKEKLAQKNLSVKDLGLVENYISFYDHLASLWDSLKKMHVLEEKRVRTRLEQVHEWLAKKRLSFTSQELSDLRSEIQRLTYLVNLLTRYKIAEKKVKDSIAVEVYSVQNILEKTCKFTQEDEQLVQEKMEALKATLPCSGLGISEEERVQIVSAIGYPRGHWFKCRNGHIYVIGDCGGAMERGTCPDCKEVIGGTNHTLERSNQLASEMDGAQHAAWSDTANNLMNFEEIQGMM
